## Drug screen on melanoma cell lines: apoptosis marker

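The test systems are human melanoma cell lines, treated with a pair of drugs for 72 h and then stained and imaged. Each value is the cleaved-PARP-positive fraction of nuclei relative to DMSO-treated wells, in %, so that 100 equals the control and higher values mean more apoptosis. Concentrations were fixed for each drug; these are the higher of two levels. These are primary screening values without error estimates. The marker varies much from line to line, for technical or biological reasons.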 This is part of the screen, not chosen by result.

Drug key:
FK866 (0.05 µM): O=C(/C=C/c1cccnc1)NCCCCC1CCN(C(=O)c2ccccc2)CC1
pioglitazone (10 µM): CCc1ccc(CCOc2ccc(CC3SC(=O)NC3=O)cc2)nc1 (configuration not stated)
BI-D1870 (1 µM): CC(C)CCN1c2nc(Nc3cc(F)c(O)c(F)c3)ncc2N(C)C(=O)C1C (configuration not stated)
ruxolitinib (5 µM): N#CC[C@H](C1CCCC1)n1cc(-c2ncnc3[nH]ccc23)cn1
T0901317 (7 µM): O=S(=O)(c1ccccc1)N(CC(F)(F)F)c1ccc(C(O)(C(F)(F)F)C(F)(F)F)cc1
cisplatin (8 µM): N.N.[Cl][Pt][Cl]
dovitinib (0.5 µM): CN1CCN(c2ccc3nc(-c4c(N)c5c(F)cccc5[nH]c4=O)[nH]c3c2)CC1
veliparib (7 µM): C[C@]1(c2nc3c(C(N)=O)cccc3[nH]2)CCCN1
JZL184 (5 µM): O=C(Oc1ccc([N+](=O)[O-])cc1)N1CCC(C(O)(c2ccc3c(c2)OCO3)c2ccc3c(c2)OCO3)CC1

T0901317 and FK866 gave WM115: 62.9; UACC-62: 70.7; SK-MEL-5: 142. With pioglitazone and veliparib the screen read WM115: 140; UACC-62: 104; SK-MEL-5: 150. For dovitinib and BI-D1870 the values were WM115: 59.3; UACC-62: 122; SK-MEL-5: 168. With JZL184 and BI-D1870 the screen read WM115: 93.1; UACC-62: 130; SK-MEL-5: 140.

dovitinib and veliparib gave WM115: 386; UACC-62: 157; SK-MEL-5: 27.4. For pioglitazone and dovitinib the values were WM115: 87.4; UACC-62: 90.8; SK-MEL-5: 89.0. For BI-D1870 and cisplatin the values were WM115: 254; UACC-62: 167; SK-MEL-5: 82.4. For pioglitazone and BI-D1870 the values were WM115: 88.1; UACC-62: 116; SK-MEL-5: 1180.

Results for cisplatin and JZL184 are WM115: 59.7; UACC-62: 400; SK-MEL-5: 30.5. For ruxolitinib and JZL184 the values were WM115: 113; UACC-62: 172; SK-MEL-5: 166. With ruxolitinib and FK866 the screen read WM115: 178; UACC-62: 392; SK-MEL-5: 67.8. For veliparib and ruxolitinib the values were WM115: 336; UACC-62: 171; SK-MEL-5: 153.

With ruxolitinib and cisplatin the screen read WM115: 263; UACC-62: 178; SK-MEL-5: 178. For FK866 and pioglitazone the values were WM115: 216; UACC-62: 136; SK-MEL-5: 71.4. With T0901317 and cisplatin the screen read WM115: 47.4; UACC-62: 135; SK-MEL-5: 65.1. With pioglitazone and JZL184 the screen read WM115: 173; UACC-62: 190; SK-MEL-5: 97.9.

With ruxolitinib and BI-D1870 the screen read WM115: 181; UACC-62: 110; SK-MEL-5: 118. cisplatin and pioglitazone gave WM115: 194; UACC-62: 90.7; SK-MEL-5: 55.1. For JZL184 and veliparib the values were WM115: 57.4; UACC-62: 125; SK-MEL-5: 118. BI-D1870 and FK866 gave WM115: 309; UACC-62: 116; SK-MEL-5: 92.2.

For ruxolitinib and T0901317 the values were WM115: 48.8; UACC-62: 84.6; SK-MEL-5: 324. Results for dovitinib and T0901317 are WM115: 80.6; UACC-62: 144; SK-MEL-5: 159. With FK866 and veliparib the screen read WM115: 589; UACC-62: 212; SK-MEL-5: 170. With dovitinib and FK866 the screen read WM115: 465; UACC-62: 147; SK-MEL-5: 273.

With T0901317 and BI-D1870 the screen read WM115: 105; UACC-62: 136; SK-MEL-5: 129. For veliparib and T0901317 the values were WM115: 65.7; UACC-62: 555; SK-MEL-5: 332. Results for veliparib and cisplatin are WM115: 294; UACC-62: 161; SK-MEL-5: 467. Results for cisplatin and dovitinib are WM115: 508; UACC-62: 121; SK-MEL-5: 231.

Results for JZL184 and dovitinib are WM115: 170; UACC-62: 95.6; SK-MEL-5: 101.

For reference, 3 entries once more:

* JZL184 and BI-D1870 | WM115: 93.1; UACC-62: 130; SK-MEL-5: 140
* BI-D1870 and FK866 | WM115: 309; UACC-62: 116; SK-MEL-5: 92.2
* JZL184 and veliparib | WM115: 57.4; UACC-62: 125; SK-MEL-5: 118

From a melanoma drug combination screen (doi:10.1371/journal.pone.0140310); values rounded.